# Test results published in PMC12040169 (PLOS Biology, 2025).
# This is one part of the list.
# System: T1, CTL2-GFP (C. trachomatis L2/434/Bu, GFP-expressing)
# T1 construct: L2/434/Bu, GFP-expressing
# Set-up: species or system HeLa; Intracellular C. trachomatis growth in HeLa cells, bulk GFP fluorescence relative to DMSO
# Conditions: bulk GFP, single well; 28.5 h, 10 µM; inhibitor
row,Structure (SMILES),% of control remaining
1,CC(C)(C)C(=O)N1CC(n2nc(-c3ccccc3)ccc2=O)C1 [CBK284623],142.022%
2,COc1ccc(NC(=O)CC(CN(C)Cc2ccccc2)C(=O)O)cc1 (stereo not shown) [CBK286854],133.273%
3,CCc1ccc(-c2ccc(-c3cc(C(=O)O)c4cc(Br)ccc4n3)o2)cc1 [CBK300543],94.1348%
4,COc1ccc(CNC(=O)[C@H]2C=CCN2C(=O)c2cccs2)cc1 [CBK282325],123.524%
5,CCOc1ccc(S(=O)(=O)N2CCC(C(=O)O)CC2)cc1Cl [CBK269759],116.479%
6,O=C(CSc1ccc(Cl)cc1)NNC(=O)c1cccc([N+](=O)[O-])c1 [CBK268384],129.704%
7,S=c1ccc(N/N=C/C2CC=CCC2)n[nH]1 (stereo not shown) [CBK018655],124.568%
8,Cc1ccc(S(=O)(=O)N2CCCC(C(=O)O)C2)cc1 (stereo not shown) [CBK100948],102.182%
9,O=C(O)[C@H]1CCCN1Cc1cc(Cl)ccc1OCCCn1ccnc1 [CBK307436],148.496%
10,CC(C)C(=O)N[C@H]1C[C@@H](Cc2cc(CN3CCOCC3)on2)C1(C)C [CBK289248],158.015%
11,COc1ccc(C(=O)COc2nc3c(C(F)(F)F)cc(C4CC4)nc3o2)cc1 [CBK269498],136.145%
12,O=C(Nc1cccnc1)c1cc(S(=O)(=O)N2CCCCC2)c(Cl)cc1Cl [CBK264567],103.756%
13,COc1cc(/C=C/c2nc(O)c([N+](=O)[O-])c(=O)[nH]2)ccc1OCC(=O)N1CCOCC1 [CBK267168],149.394%
14,Cc1noc(NS(=O)(=O)c2ccc(NC(=O)C3COc4ccccc4O3)cc2)c1C (stereo not shown) [CBK264923],70.0473%
15,COc1ccc(Br)cc1S(=O)(=O)Nc1ccc(C(=O)O)cc1 [CBK034047],96.554%
16,O=c1[nH]c2ccccc2n1CCCN1CCN(c2nccnc2Oc2ccc(F)cc2)CC1 [CBK083027T],172.482%
17,O=[N+]([O-])c1cc(/C=N/Nc2nnn[nH]2)ccc1N1CCOCC1 [CBK262199],135.794%
18,CC(=O)N1C[C@@H]2OCC(=O)N(Cc3ccccn3)[C@@H]2C1 [CBK289245],162.388%
19,CCOC(=O)CN1C(=O)S/C(=C/c2cc(C)n(-c3ccc(S(N)(=O)=O)cc3)c2C)C1=O [CBK265410],102.783%
20,Nc1ncnc(Nc2cccc(F)c2)n1 [CBK017447],101.518%
21,OC(CNc1nccnc1-c1cccc(C(F)(F)F)c1)COc1ccccc1 (stereo not shown) [CBK037010],172.17%
22,COc1cc2c(cc1OC)CN(Cc1csc(C)n1)CC2 [CBK126443],121.412%
23,O=C1NCCN/C1=C\C(=O)c1ccc(Br)cc1 [CBK261427],100.63%
24,O=C(CSc1ccc(-n2ccnc2)nn1)Nc1cccnc1 [CBK287635],123.071%
25,O=C(Nc1sc2c(c1C(=O)N1CCOCC1)CCCCC2)c1cccs1 [CBK307099],98.9685%

# Looked up above:
# O=C(CSc1ccc(Cl)cc1)NNC(=O)c1cccc([N+](=O)[O-])c1 [CBK268384] – % of control remaining: 129.704%
# Cc1ccc(S(=O)(=O)N2CCCC(C(=O)O)C2)cc1 (stereo not shown) [CBK100948] – % of control remaining: 102.182%
# OC(CNc1nccnc1-c1cccc(C(F)(F)F)c1)COc1ccccc1 (stereo not shown) [CBK037010] – % of control remaining: 172.17%

# Later entries

row,Structure (SMILES),% of control remaining
1,COCCNC(=O)Cn1nnc(-c2ccc(OC)cc2)n1 [CBK069349],100%
2,CCCCNC(=S)NC1CC[C@@]2(c3ccc(Br)cc3)CCN(C)[C@H]2C1 (stereo partly shown) [CBK003781],105.847%
3,C/C(=C(/C(=O)N(N)c1nc2ccccc2s1)C(=O)C(F)(F)F)N1CCC(C(N)=O)(N2CCCCC2)CC1 [CBK265787],56.7625%
4,Cc1ccc(NC(=O)Cc2ccncc2)c(C)n1 [CBK200385],103.763%
5,C=C(C)CNC(=O)c1cc(-c2cccc(NC(C)=O)c2)cnc1N(C)S(C)(=O)=O [CBK076622],168.164%
6,Cc1nnnn1CCC(=O)NCCc1cn2ccccc2n1 [CBK306816],114.972%
7,Cc1ncccc1C(=O)N1CCN(Cc2ccccc2)CC1 [CBK200171],173.661%
8,O=C(CSc1nnc(-c2ccco2)o1)N1CCN(CC(=O)N2CCCC2)CC1 [CBK295136],130.076%
9,COc1ccc2c(CN(C)Cc3cc(C)[nH]n3)cn(C)c2c1 [CBK281734],132.728%
10,CCOc1ccccc1NC(=O)CNS(=O)(=O)c1ccccc1 [CBK265860],179.778%
11,O=C(O)CCC(C(=O)O)N1C(=O)c2c(Cl)c(Cl)c(Cl)c(Cl)c2C1=O (stereo not shown) [CBK264308],137.6%
12,Cc1ccc(C(=O)Nc2cccc(-c3cn4cccnc4n3)c2)cc1 [CBK287503],144.467%
13,CC(O)(CC(=O)O)C12CC3CC(CC(C3)C1)C2 (stereo not shown) [CBK261245],91.9047%
14,CN1CCC(N2CCN(C(=O)c3cncc(-c4[nH]nnc4-c4ccccc4)c3)CC2)CC1 [CBK160327],114.594%
15,CN(C)C(=O)c1ccc(Cn2nc(C(=O)NCCOc3ccccc3)c3ccccc32)cc1 [CBK047700],100%
16,COc1ccc(CCNC(=O)c2cccc(-c3ccc(OC4CCNCC4)cc3)n2)cc1OC [CBK126548T],120.955%
17,O=C(c1ccccc1)c1ccc(NC(=O)c2ccccc2F)c(NC(=O)c2ccccc2F)c1 [CBK265183],124.757%
18,CC(C)[C@H]1CN(Cc2ccccc2F)CCN1C(=O)Cn1ncc2ccccc2c1=O [CBK286172],127.484%
19,CC(C)CN(Cc1ccc2c(c1)OCO2)C(=O)NCc1ccc(Cl)c(Cl)c1 [CBK159069],101.449%
20,CC(C)(C)S(=O)(=O)Nc1nccnc1-c1ccc(OCc2ccccc2)cc1 [CBK050886],130.421%
21,CC(C)Sc1nnc(N2C(N)=C(C#N)C(c3cccs3)C3=C2CCCC3=O)s1 (stereo not shown) [CBK293989],114.663%
22,CC(=O)Nc1cccc(CN2CCCC2CN2CCCC2CO)c1 (stereo not shown) [CBK305163],72.3582%
23,Cc1ccccc1-c1csc2c(=O)[nH]c(N3CCC4(CC3)OCCO4)nc12 [CBK291141],127.948%
24,COc1cccc(CNn2cnnc2S)c1OCc1ccccc1 [CBK265781],174.793%
